According to US8969060B2, “Modified glucose dehydrogenase” (Ikeda Food Research Co., Ltd., priority 2011, dated 2015):
Where a chain is given by its changes, count along the chain named. Names and notes keep the numbering of the source. Some entries share one result that the patent states for a list of compounds.

B1: S340W: modified GLD: SEQ ID NO: 1 with substitution S340W (protein, listed as Aspergillus terreus)
chain: MLGKLSFLSALSLAVAAPLSNSTSAKYDYIVIGGGTSGLAVANRLSEDPNVNVLILEAGGSVWNNPNVTNVDGYGLAFGSDIDWQYQSVNQPYGGNLSQVLRAGKALGGTSTINGMAYTRAEDVQIDAWETIGNTGWTWKNLFPYYRKSENFTVPTKSQTSLGASYEAGAHGHEGPLDVAFTQIESNNLTTYLNRTFQGMGLPWTEDVNGGKMRGFNLYPSTVNLEEYVREDAARAYYWPYKSRPNLHVLLNTFANRIVWDGEAHDGHITASGVEITSRNGTVRVINAEKEVIVSAGALKSPAILELSGIGNPSVLDKHNIPVKVNLPTVGENLQDQVNWHMDASGNTSISGTKAVSYPDVYDVFGDEAESVAKQIRANLKQYAADTAKANGNIMKAADLERLFEVQYDLIFKGRVPIAEVLNYPGSATSVFAEFWALLPFARGSVHIGSSNPAEFPVINPNYFMLDWDAKSYVAVAKYIRRSFESYPLSSIVKESTPGYDVIPRNASEQSWKEWVFDKNYRSNFHPVGTAAMMPREIGGVVDERLNVYGTTNVRVVDASVLPFQVCGHLVSTLYAVAERAADLIKADAGRR
modifications: SIGNAL (1)..(19)
B2: H341A: modified GLD: SEQ ID NO: 1 with substitution H341A (protein, listed as Aspergillus terreus)
chain: B1 chain with W340S, H341A
modifications: SIGNAL (1)..(19)
B3: H341C: modified GLD: SEQ ID NO: 1 with substitution H341C (protein, listed as Aspergillus terreus)
chain: B1 chain with W340S, H341C
modifications: SIGNAL (1)..(19)
B4: H341F: modified GLD: SEQ ID NO: 1 with substitution H341F (protein, listed as Aspergillus terreus)
chain: B1 chain with W340S, H341F
modifications: SIGNAL (1)..(19)
B5: H341I: modified GLD: SEQ ID NO: 1 with substitution H341I (protein, listed as Aspergillus terreus)
chain: B1 chain with W340S, H341I
modifications: SIGNAL (1)..(19)
B6: H341K: modified GLD: SEQ ID NO: 1 with substitution H341K (protein, listed as Aspergillus terreus)
chain: B1 chain with W340S, H341K
modifications: SIGNAL (1)..(19)
B7: H341M: modified GLD: SEQ ID NO: 1 with substitution H341M (protein, listed as Aspergillus terreus)
chain: B1 chain with W340S, H341M
modifications: SIGNAL (1)..(19)
B8: H341Q: modified GLD: SEQ ID NO: 1 with substitution H341Q (protein, listed as Aspergillus terreus)
chain: B1 chain with W340S, H341Q
modifications: SIGNAL (1)..(19)
B9: H341V: modified GLD: SEQ ID NO: 1 with substitution H341V (protein, listed as Aspergillus terreus)
chain: B1 chain with W340S, H341V
modifications: SIGNAL (1)..(19)
B10: H341W: modified GLD: SEQ ID NO: 1 with substitution H341W (protein, listed as Aspergillus terreus)
chain: B1 chain with W340S, H341W
modifications: SIGNAL (1)..(19)
B11: D343F: modified GLD: SEQ ID NO: 1 with substitution D343F (protein, listed as Aspergillus terreus)
chain: B1 chain with W340S, D343F
modifications: SIGNAL (1)..(19)
B12: D343K: modified GLD: SEQ ID NO: 1 with substitution D343K (protein, listed as Aspergillus terreus)
chain: B1 chain with W340S, D343K
modifications: SIGNAL (1)..(19)
B13: D343L: modified GLD: SEQ ID NO: 1 with substitution D343L (protein, listed as Aspergillus terreus)
chain: B1 chain with W340S, D343L
modifications: SIGNAL (1)..(19)
B14: D343V: modified GLD: SEQ ID NO: 1 with substitution D343V (protein, listed as Aspergillus terreus)
chain: B1 chain with W340S, D343V
modifications: SIGNAL (1)..(19)
B15: D343Y: modified GLD: SEQ ID NO: 1 with substitution D343Y (protein, listed as Aspergillus terreus)
chain: B1 chain with W340S, D343Y
modifications: SIGNAL (1)..(19)

assay: Relative enzymatic activity of GLD (DCIP/1-m-PMS, plate reader, yeast culture supernatant) with 1,10-phenanthroline present; assay type: biochemical; details: inhibitor not named, values match the 1,10-phenanthroline columns
Description: The susceptibility defined in the present specification is evaluated in terms of a relative activity that is determined in a system wherein the inhibitor coexists or not. The relative activity is derived from a relative value (%) of an enzymatic activity (a sample value) obtained with the addition of the inhibitor in the determination of the enzymatic activity described in the present specification as compared with an enzymatic activity (a blank value) as “100%” obtained without the addition of the inhibitor in the same determination. Thus, the higher the relative activity is, the less the susceptibility to the inhibitor is (or the more the susceptibility to the inhibitor is reduced), vice versa.
The enzymatic activity is determined in the following manner in Examples 3 and 6 wherein a plate reader (Japan Molecular Device Corporation, SpectraMax Plus384) is used. Thus, culture supernatant that had been diluted in advance with an appropriate magnification is added to a 96-well microplate with an amount of 100 μl per well. A reagent for the determination of the enzymatic activity comprising phosphate buffer (pH 7.0), 1.0 M D-glucose, 3 mM DCIP, 3 mM 1-m-PMS and methanol with a volume ratio of 0.1:1:0.14:0.2:0.06 is added to the 96-well microplate with an amount of 100 μl per well, and a change in the absorbance of DCIP at 600 nm (ΔABS/min) is then determined. The enzymatic activity can be calculated by conversion in proportion to a change in the absorbance of an enzyme solution for which the enzymatic activity has already been known by the above-mentioned activity determination procedure using the spectrophotometer.
In the following examples, a value of the enzymatic activity determined by the spectrometer or plate reader using the above reagent composition is considered as a blank value. On the other hand, a sample value is determined using a methanol solution comprising the inhibitor such as 1,10-phenanthroline or proflavin hydrochloride at a final concentration of 1 mM instead of the methanol. Enzymatic activity (unit/mL)=(−ΔABS/16.3)×3.0/0.05×(Dilution ratio of enzyme) [Equation 1]
Into each well of a 96-well microplate (manufactured by Nunc, Inc.), a YPD medium containing 125 μL of 1.0% (w/v) yeast extract (manufactured by BD), 2.0% (w/v) tryptone (manufactured by BD), 2.0% (w/v) glucose (manufactured by Wako Pure Chemical Industries, Ltd.) was dispensed, and the transformant colonies obtained in Example 2 were inoculated thereinto one by one.
After shaking culture at 30° C. and 1,000 rpm for 24 hours, the culture mixture was centrifuged and the supernatant was collected.
According to the above-mentioned method for the determination of enzymatic activity, a blank value and a sample value were determined using a plate reader, and the relative activity (%) was obtained by dividing the sample value by the blank value.

Molecule	relative activity when the inhibitor coexists at the final concentration of 1 mM
B1	more than 95%
B2	more than 95%
B3	more than 95%
B4	more than 95%
B5	more than 95%
B6	more than 95%
B7	more than 95%
B8	more than 95%
B9	more than 95%
B10	more than 95%
B11	more than 95%
B12	more than 95%
B13	more than 95%
B14	more than 95%
B15	more than 95%
